Fewer than 10 of roughly 1,200 compounds were called active.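 How the source made its calls: active means inhibition reaching a set limit at one or more tested concentrations; inactive means inhibition under that limit at every dose.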 The list shows a part of the results. Measured potencies and affinities stand elsewhere.
Assay: RAM pathway signaling blockade in S. cerevisiae – dose response (AID 1307);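 further: 0% = DMSO vehicle wells and 100% = 10 µM 1-NA-PP1 control; higher inhibition means more yeast growth since RAM block rescues cells from 5-FOA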
Conditions: S. cerevisiae RAM network URA3 reporter, 5-FOA growth OD615, hits give high values, yeast express analog-sensitive mutant Cbk1 kinase; at 100 µM unless noted

Max inhibition, inactive:
COc1ccc(/C=C/C(=O)c2ccccc2)cc1COc1ccc(F)cc1 4.52% [at 25 µM]
Cc1ccccc1NC(=O)CCCSc1nc2ccccc2s1 1.4% [at 25 µM]
CC(C)COc1ccc(/C=C2/Sc3ccccc3C2=O)cc1 5.31%
CCOc1ccc(-c2nnc3ccc(SCc4ccc(C(=O)OC)o4)nn23)cc1 2.44% [at 25 µM]
Cc1ccc(CSc2nc3ccccc3c(=O)n2Cc2ccco2)cc1 3.33% [at 25 µM]
Cn1c(=O)[nH]c(=O)c2c1nc(Sc1ccccc1)n2CCc1ccccc1 1.45% [at 0.782 µM]
Cc1[nH]c2ccccc2c1/C=N/Nc1ccc([N+](=O)[O-])cc1S(=O)(=O)Nc1ccc(Cl)cc1 10.3%
Cc1ccc(C)c(C(=O)COC(=O)c2cc([N+](=O)[O-])ccc2NCCO)c1 1.46% [at 3.125 µM]
O=C(/C=C/c1ccccc1)N1CCN(c2cccc(Cl)n2)CC1 6.02%
CCOC(=O)CSC1=C(C#N)C(c2ccco2)C(C(=O)OCc2ccccc2)=C(C)N1 (stereo not drawn) 4.53% [at 25 µM]
CC(=O)Nc1ccc(S(=O)(=O)Nc2nc3ccccc3nc2-n2ccc(=NC(=O)c3ccc(F)cc3)cc2)cc1 9.72%
O=C(COC(=O)c1cc(-c2cccc(Br)c2)nc2ccccc12)NCC1CCCO1 (stereo not drawn) 1.34% [at 0.391 µM]
COc1cccc(C(=O)CSc2nnc(-c3cc(OC)c(OC)c(OC)c3)o2)c1 3.92% [at 1.563 µM]
O=C(CCCSc1nnc(SCCCC(=O)c2ccc(F)cc2)s1)c1ccc(F)cc1 4.44% [at 50 µM]
COc1cccc(-c2csc3nnc(SCC(=O)NCc4cccs4)n23)c1 4.59%
COC(=O)c1c(NC(=O)c2ccccc2)sc(Cc2ccccc2)c1C 5.58% [at 50 µM]
O=C(NCCc1ccccc1)c1c(O)c2cccc3c2n(c1=O)CC3 2.92% [at 50 µM]
COn1c(SCc2ccccc2)nc2ccccc2c1=O 2.79% [at 1.563 µM]
COc1ccc2c(C)cc(SCC(=O)c3ccc4c(c3)OCO4)nc2c1 4.01%
O=C(OCc1ccccc1F)c1ccc2c(c1)-c1ccccc1C2=O 8.99% [at 50 µM]
CCOc1ccc2nc3c(cc2c1)CN(CCOC)C(=NCCOC)S3 4.45%
O=S(=O)(c1ccccc1F)N(Cc1ccco1)Cc1nnc(-c2ccccc2Br)o1 2.49% [at 1.563 µM]
CCCOc1ccc(-c2nc(OCC)c3ccccc3n2)cc1 5.78% [at 50 µM]
COc1cc(/C=C/C(=O)OCC(=O)Nc2ccccc2Sc2ccc(Cl)cc2)ccc1O 3.88%
COc1ccc(OC)c(NC(=O)CSCc2cnn(-c3ccccc3)c2-n2cccc2)c1 1.79% [at 3.125 µM]
COc1ccc(C(=O)/C=C/c2ccc(OC)c(COc3ccccc3F)c2)cc1 3.26% [at 12.5 µM]
COCCOC(=O)c1c(C)oc2ccc(OC(=O)c3c(OC)cccc3OC)cc12 2.82% [at 0.391 µM]
C=CCn1c(SCc2csc(C)n2)nc2sc3c(c2c1=O)CCC(C)C3 (stereo not drawn) 2.88% [at 50 µM]
Cc1ccc(CSCCNC(=O)c2ccc(N(C)S(=O)(=O)c3ccccc3)cc2)cc1 3.36% [at 50 µM]
O=C(c1oc2ccccc2c1CSCc1ccccc1)N1CCN(c2ncccn2)CC1 2.29% [at 0.782 µM]
COc1ccccc1-c1ccc(SCc2ccc([N+](=O)[O-])cc2)nn1 2.51% [at 3.125 µM]
C=CCN(c1ccccc1Cl)S(=O)(=O)c1cccc(C(=O)NCCc2ccc(OC)cc2)c1 2.05% [at 12.5 µM]
COc1ccc(/C=C2\SC(=O)N(CCC(=O)Nc3ccccc3)C2=O)cc1OC 3.41%
COc1cc(NS(=O)(=O)c2ccc(Nc3nc(-c4ccccc4)cs3)cc2)nc(OC)n1 22%
CN(CCOc1ccccc1)S(=O)(=O)c1ccc2oc3ccccc3c2c1 3.54% [at 0.391 µM]
Cc1ccc(C(=O)C(OC(=O)COc2ccccc2C)c2ccccc2)cc1 (stereo not drawn) 3.49% [at 50 µM]
COc1ccc(/C=N/OCC(=O)NC(c2ccccc2)c2ccccc2)c(OC)c1 3.42%
COc1ccc(CCNC(=O)c2ccc(-c3ccc([N+](=O)[O-])cc3Cl)o2)cc1 4.1%
COc1ccccc1-c1cc(C(F)(F)F)nc(N2CCN(c3ccccc3)CC2)n1 4.49%
Cc1cc(OCc2nnc(SCC(=O)OC3CCCCC3)o2)ccc1Cl 2.07% [at 0.391 µM]
COc1ccc(C(=O)COC(=O)C(CCSC)NS(=O)(=O)c2ccc(Cl)cc2)cc1 (stereo not drawn) 2.78% [at 25 µM]
O=C(CSc1nnc(-c2cccc(S(=O)(=O)N3CCCCC3)c2)o1)NCCC1=CCCCC1 14%
COc1ccc(CNc2oc(Cc3cccc4ccccc34)nc2C#N)cc1 2.77% [at 0.782 µM]
COc1cccc(-c2cc(C(=O)Nc3ccn(Cc4ccc(C)cc4)n3)no2)c1 3.29%
Cc1ccc(C(=O)CSc2nnc(COc3cc(C)cc(C)c3)o2)cc1 4.29% [at 25 µM]
Cc1cccc(/C=C\c2nc3ccccc3c(=O)[nH]2)c1 4.62%
N#Cc1cc(-c2ccc(Cl)cc2)cnc1Sc1ccc(F)cc1 2.38% [at 25 µM]
CCS(=O)(=O)c1ccc(-c2csc(-c3ccc(Cl)cc3)n2)c(Cl)c1Cl 1.92% [at 50 µM]
Nc1nc(-c2ccccc2)c(N=Nc2cccnc2)s1 4.8%
O=C(CCC(=O)c1ccc(Oc2ccccc2)cc1)Nc1cccc(Cl)c1Cl 3.23% [at 25 µM]
COc1cccc(NC(=O)CSc2nnc(COc3ccc4c(c3)CCCC4)o2)c1 2.82%
Fc1ccc(N2CCN(c3nc(-c4ccco4)cc(C(F)(F)F)n3)CC2)cc1 3.18% [at 0.782 µM]
COc1ccc(-n2nnc3c(SCC(=O)OCc4ccccc4)ncnc32)cc1 2.88% [at 50 µM]
O=C(CSc1cccc(C(F)(F)F)c1)Nc1cc(S(=O)(=O)N2CCCC2)ccc1Cl 2.33% [at 0.782 µM]
COc1ccc(C)cc1N1C(=N)/C(=C2/Nc3ccccc3S2)C(c2ccccc2)C1=O (stereo not drawn) 13.5%
CCOC(=O)Cc1csc(NC(=O)NC2(C(F)(F)F)Oc3ccccc3O2)n1 1.09% [at 0.782 µM]
CCCOc1ccc(CC(=O)NNC(=S)Nc2ccccc2)cc1Br 2.27% [at 6.25 µM]
Cc1ccc(CNC(=O)CNC(=S)N(Cc2ccccc2)Cc2ccccc2F)cc1 3.76% [at 12.5 µM]
CC(C)CC1=NN2C(=N)/C(=C\c3coc4ccccc4c3=O)C(=O)N=C2S1 3.4% [at 0.196 µM]
CCN=C1S/C(=C\c2cc(Br)ccc2OCC(=O)OCC)C(=O)N1CC 2.27% [at 3.125 µM]
COc1nc2ccc(C)cc2cc1-c1noc(-c2ccccc2)n1 3.02% [at 25 µM]
COC(=O)c1ccccc1NC(=O)c1cccc(COc2ccccc2Cl)c1 5.66%
COc1ccc(/C=C/C(=O)c2sc(-c3ccccc3)nc2C)cc1 2.67% [at 50 µM]
CCC(C)(C)c1ccc(Oc2ccc(NC(=O)COC(=O)C3=COCCO3)cc2)cc1 3.38% [at 12.5 µM]
O=C(C(Sc1ccccc1)c1ccccc1)N1CCN(c2ccccc2F)CC1 (stereo not drawn) 0.48% [setting not given]
CCCCOc1ccc(C(=O)N/C(=C\c2ccc(OC)cc2)C(=O)OCc2ccco2)cc1 3.36% [at 50 µM]
COc1cccc(CSc2nc3ccccc3cc2C=O)c1 1.68% [at 50 µM]
S=C(c1ccc(-c2ccccc2Cl)o1)N1CCOCC1 2.62% [at 0.196 µM]
CCCn1c(=O)c(C(=O)NCc2ccc(OC)c(OC)c2)c(O)c2ccccc21 1.62%
O=C(CSc1nc2c(cnn2-c2ccccc2)c(=O)[nH]1)N1N=C(c2cccs2)CC1c1ccc(F)cc1 (stereo not drawn) 13.5%
COc1ccc(O[C@H]2C=C[C@@H](c3ccccc3)O[C@@H]2CO/N=C/C[C@@H]2C=C[C@H](OC(C)=O)[C@@H](COC(C)=O)O2)cc1 1.56% [at 0.196 µM]
Cc1ccc(O)c(C(=O)/C=C/c2ccc3c(c2)OCCCO3)c1 2.83%
CCN(CC(O)CON=C1c2ccccc2-c2ccccc21)S(=O)(=O)c1ccc(C)cc1 (stereo not drawn) 7.91% [at 50 µM]
COCC(C)n1c(SCc2ccc(OC)c(F)c2)nc2ccccc2c1=O (stereo not drawn) 3.92% [at 1.563 µM]
CCCCCCCCC(=O)NNC(=O)c1c(O)c2ccccc2n(CC)c1=O 1.2% [at 3.125 µM]
N#C/C(=C\C1=C(N2CCOCC2)C(=C\c2ccccc2)/CC1)C(=O)Nc1ccccc1F 4.22%
CCCc1nn(C)c(C(=O)Nc2ccc(C)c(C)c2)c1Cl 1.06% [at 0.782 µM]
O=C(c1ccccc1)c1sc(N2CCCCCC2)nc1-c1ccccc1 2.72%

A draw from above in order of molecular weight, low to high.
Max inhibition, inactive:
Nc1nc(-c2ccccc2)c(N=Nc2cccnc2)s1 4.8%
COc1ccc(-n2nnc3c(SCC(=O)OCc4ccccc4)ncnc32)cc1 2.88% [at 50 µM]
CCCOc1ccc(CC(=O)NNC(=S)Nc2ccccc2)cc1Br 2.27% [at 6.25 µM]
COc1ccc(OC)c(NC(=O)CSCc2cnn(-c3ccccc3)c2-n2cccc2)c1 1.79% [at 3.125 µM]

A stretch of the results above, as a working copy:
Max inhibition, inactive:
COc1ccc(-n2nnc3c(SCC(=O)OCc4ccccc4)ncnc32)cc1 2.88% [at 50 µM]
O=C(CSc1cccc(C(F)(F)F)c1)Nc1cc(S(=O)(=O)N2CCCC2)ccc1Cl 2.33% [at 0.782 µM]
COc1ccc(C)cc1N1C(=N)/C(=C2/Nc3ccccc3S2)C(c2ccccc2)C1=O (stereo not drawn) 13.5%
